From patent US20130034493A1 come the findings set out here.

The target in assay [1] is recombinant BMP9 (rBMP9). As to the kind of experiment: ELISA, detection with FLAG (M2) antibody (FIG. 19A).
In assay [2] the target is recombinant BMP1 (rBMP1). The assay is described as above.
The target of assay [3] is recombinant BMP9 (rBMP9). As to the kind of experiment: ELISA, detection with FLAG (M2) antibody (FIG. 7A).
Assay [4] deals with recombinant BMP1 (rBMP1). As to the kind of experiment: ELISA, detection with FLAG (M2) antibody (FIG. 7A).

These are yes or no findings as the source states them, for the method shown. Tags and fused reporters may be left off the sequences shown.

B1: mouse recombinant Olfml3-FLAG tagged protein (rOlfml3-FLAG) (protein, not shown: small tags and cut ends)
chain: QQHHLVEYMERRLAALEERLAQCQDQSSRHAAELRDFKNKMLPLLEVAEKERETLRTEADSISGRVDRLEREVDYLETQNPALPCVELDEKVTGGPGAKGKGRRNEKYDMVTDCSYTVAQVRSMKILKRFGGSVGLWTKDPLGPAEKIYVLDGTQNDTAFVFPRLRDFTLAMAARKASRIRVPFPWVGTGQLVYGGFLYYARRPPGGPGGGGELENTLQLIKFHLANRTVVDSSVFPAESLIPPYGLTADTYIDLAADEEGLWAVYATRDDDRHLCLAKLDPQTLDTEQQWDTPCPRENAEAAFVICGTLYVVYNTRPASRARIQCSFDASGTLAPERAALSYFPRRYGAHASLRYNPRERQLYAWDDGYQIVYKLEMKKKEEEV
Turning to B1, the binding result with recombinant BMP9 (rBMP9) [1] is given as “no binding (tested: 0.1-1 µg/mL)”; in the assay with recombinant BMP1 (rBMP1) [2], “no binding (tested: 0.1-1 µg/mL)”; in the assay with recombinant BMP9 (rBMP9) [3], “no binding (tested: 0.1-1 ng/µl)”; in the assay with recombinant BMP1 (rBMP1) [4], “no binding (tested: 0.1-1 ng/µl)”.
